Reference: patent US20190105194A1, “METHODS OF TREATING A SUBJECT WITH AN OCULAR CONDITION RESPONSIVE TO STEROID THERAPY” (Aciont Inc., priority 2017, published 2019)

Tests used:
[1] = test system: New Zealand White (NZW) rabbits; conditions: rabbit, in vivo
[2] = test system: New Zealand White rabbits; conditions: rabbit, in vivo
[3] = rabbit, in vivo

In the case of `C[C@@H]1C[C@H]2[C@@H]3CCC4=CC(=O)C=C[C@]4(C)[C@@]3(F)[C@@H](O)C[C@]2(C)[C@@]1(O)C(=O)COP(=O)(O)O` [DSP, dexamethasone sodium phosphate], the “duration of transient effect on IOP” value ([1]; both) is reported as at most 30 min, the “duration of increase in IOP” value ([1]; female) is reported as “less than 30 minutes” and the “appearance of cornea after each administration” value [2] is reported as “appeared normal”. For the same compound, the “drug plasma concentrations within 24 hours” value [3] was “approaching or under the lowest detection limit of 1 ng/mL”.
